# The supplement of paper PMC4604168 (melanoma cell lines)
# Some of the results follow. Repeats are few or missing, and single values can be far off.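 Cells were imaged in 1,536-well plates, and nuclei stained with an antibody against cleaved PARP were counted against all DNA-stained nuclei to give the apoptosis fraction. Screening doses were chosen to leave most cells alive, and resting and induced cleaved-PARP levels differ strongly between cell lines.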
# System: A101D
# Assay: cleaved PARP positive nuclei fraction relative to DMSO control; melanoma cells; higher = more apoptosis
# Details: library dose: low library concentration; 72 h
row,SMILES,cleaved PARP positive nuclei fraction
1,"O=C(/C=C/c1cccnc1)NCCCCC1CCN(C(=O)c2ccccc2)CC1 + C[As](C)SC[C@H](NC(=O)CC[C@H](N)C(=O)O)C(=O)NCC(=O)O [Darinaparsin] (first compound 0.01 µM, partner dose 0.4 µM)",193%
2,"OCc1c[nH]c2ccccc12 [Indole-3-carbinol] + C[As](C)SC[C@H](NC(=O)CC[C@H](N)C(=O)O)C(=O)NCC(=O)O [Darinaparsin] (first compound 0.8 µM, partner dose 0.4 µM)",51.5%
3,"Nc1ccn([C@@H]2O[C@H](CO)[C@@H](O)C2(F)F)c(=O)n1 [gemcitabine] + C[As](C)SC[C@H](NC(=O)CC[C@H](N)C(=O)O)C(=O)NCC(=O)O [Darinaparsin] (first compound 0.0004 µM, partner dose 0.4 µM)",97.9%
4,"Cn1c(=O)n(-c2ccc(C(C)(C)C#N)cc2)c2c3cc(-c4cnc5ccccc5c4)ccc3ncc21 + C[As](C)SC[C@H](NC(=O)CC[C@H](N)C(=O)O)C(=O)NCC(=O)O [Darinaparsin] (first compound 0.004 µM, partner dose 0.4 µM)",156%
5,"N.N.[Cl][Pt][Cl] [cisplatin] + Cc1nc(Nc2ncc(C(=O)Nc3c(C)cccc3Cl)s2)cc(N2CCN(CCO)CC2)n1 [dasatanib] (first compound 1.6 µM, partner dose 0.004 µM)",109%
6,"N.N.[Cl][Pt][Cl] [cisplatin] + C[C@@H](Oc1cc(-c2cnn(C3CCNCC3)c2)cnc1N)c1c(Cl)ccc(F)c1Cl [Crizotinib] (first compound 1.6 µM, partner dose 0.2 µM)",161%
7,"Cn1cc(C2=C(c3cn(C4CCN(Cc5ccccn5)CC4)c4ccccc34)C(=O)NC2=O)c2ccccc21 [Enzastaurin] + O=C(O)[C@@H]1[O][Sb](=[O])([O][Sb]2(=[O])[O][C@H]([C@H](O)CO)[C@H](O)[C@H](C(=O)O)[O]2)[O][C@H]([C@H](O)CO)[C@@H]1O [stibogluconate] (first compound 0.8 µM, partner dose 2 µM)",136%
8,"C[C@]12O[C@H](C[C@]1(O)CO)n1c3ccccc3c3c4c(c5c6ccccc6n2c5c31)CNC4=O [Lestaurtinib] + Nc1ccn([C@@H]2O[C@H](CO)[C@@H](O)C2(F)F)c(=O)n1 [gemcitabine] (first compound 0.004 µM, partner dose 0.0004 µM)",50.7%
9,"N.N.[Cl][Pt][Cl] [cisplatin] + CN1CCN(c2ccc3nc(-c4c(N)c5c(F)cccc5[nH]c4=O)[nH]c3c2)CC1 [Dovitinib] (first compound 1.6 µM, partner dose 0.1 µM)",92.3%
10,"NC1(c2ccc(-c3nc4ccn5c(=O)[nH]nc5c4cc3-c3ccccc3)cc2)CCC1 + C[As](C)SC[C@H](NC(=O)CC[C@H](N)C(=O)O)C(=O)NCC(=O)O [Darinaparsin] (first compound 0.4 µM, partner dose 0.4 µM)",236%

# System: A2058
# Assay: as above
# Details: library dose: low library concentration; 72 h
row,SMILES,cleaved PARP positive nuclei fraction
1,"O=c1[nH]nc(Sc2ncc([N+](=O)[O-])s2)n1-c1ccc2c(c1)OCCO2 + N.N.[Cl][Pt][Cl] [cisplatin] (first compound 0.2 µM, partner dose 1.6 µM)",50.7%
2,"N.N.[Cl][Pt][Cl] [cisplatin] + C=C(c1ccc(C(=O)O)cc1)c1cc2c(cc1C)C(C)(C)CCC2(C)C [Bexarotene] (first compound 1.6 µM, partner dose 2 µM)",88.7%
3,"C=C(c1ccc(C(=O)O)cc1)c1cc2c(cc1C)C(C)(C)CCC2(C)C [Bexarotene] + C[As](C)SC[C@H](NC(=O)CC[C@H](N)C(=O)O)C(=O)NCC(=O)O [Darinaparsin] (first compound 2 µM, partner dose 0.4 µM)",55.5%
4,"Cc1cc(Nc2cc(N3CCN(C)CC3)nc(Sc3ccc(NC(=O)C4CC4)cc3)n2)n[nH]1 [Tozasertib] + Cn1cc(C2=C(c3cn(C4CCN(Cc5ccccn5)CC4)c4ccccc34)C(=O)NC2=O)c2ccccc21 [Enzastaurin] (first compound 0.006 µM, partner dose 0.8 µM)",130%
5,"CCN(CC)CCNC(=O)c1c(C)[nH]c(/C=C2\C(=O)Nc3ccc(F)cc32)c1C [sunitinib] + N.N.[Cl][Pt][Cl] [cisplatin] (first compound 0.4 µM, partner dose 1.6 µM)",108%
6,"Cn1cc(C2=C(c3cn(C4CCN(Cc5ccccn5)CC4)c4ccccc34)C(=O)NC2=O)c2ccccc21 [Enzastaurin] + OCc1c[nH]c2ccccc12 [Indole-3-carbinol] (first compound 0.8 µM, partner dose 0.8 µM)",82.6%
7,"C[As](C)SC[C@H](NC(=O)CC[C@H](N)C(=O)O)C(=O)NCC(=O)O [Darinaparsin] + Nc1cccc2c1CN(C1CCC(=O)NC1=O)C2=O [lenalidomide] (first compound 0.4 µM, partner dose 1 µM)",124%
8,"C[C@]12O[C@H](C[C@]1(O)CO)n1c3ccccc3c3c4c(c5c6ccccc6n2c5c31)CNC4=O [Lestaurtinib] + Clc1ccc(Nc2nnc(Cc3ccncc3)c3ccccc23)cc1 [vatalanib] (first compound 0.004 µM, partner dose 2 µM)",114%
9,"Cn1cc(C2=C(c3cn(C4CCN(Cc5ccccn5)CC4)c4ccccc34)C(=O)NC2=O)c2ccccc21 [Enzastaurin] + O=C(O)c1ccc2c(c1)nc(Nc1cccc(Cl)c1)c1ccncc12 [CX4945] (first compound 0.8 µM, partner dose 0.4 µM)",49.8%
10,"C[C@]12O[C@H](C[C@]1(O)CO)n1c3ccccc3c3c4c(c5c6ccccc6n2c5c31)CNC4=O [Lestaurtinib] + Nc1ncn([C@H]2C[C@H](O)[C@@H](CO)O2)c(=O)n1 [decitabine] (first compound 0.004 µM, partner dose 0.1 µM)",145%
11,"Cn1cc(C2=C(c3cn(C4CCN(Cc5ccccn5)CC4)c4ccccc34)C(=O)NC2=O)c2ccccc21 [Enzastaurin] + C[C@]1(c2nc3c(C(N)=O)cccc3[nH]2)CCCN1 [Veliparib] (first compound 0.8 µM, partner dose 1.4 µM)",286%
12,"Cc1ccc(Nc2nccc(N(C)c3ccc4c(C)n(C)nc4c3)n2)cc1S(N)(=O)=O [Pazopanib] + N.N.[Cl][Pt][Cl] [cisplatin] (first compound 0.4 µM, partner dose 1.6 µM)",102%
13,"C[As](C)SC[C@H](NC(=O)CC[C@H](N)C(=O)O)C(=O)NCC(=O)O [Darinaparsin] + Cn1c(Nc2ccc(C(F)(F)F)cc2)nc2cc(Oc3ccnc(-c4ncc(C(F)(F)F)[nH]4)c3)ccc21 [CHIR265] (first compound 0.4 µM, partner dose 0.08 µM)",174%
14,"CC[C@]1(O)C[C@H]2CN(CCc3c([nH]c4ccccc34)[C@@](C(=O)OC)(c3cc4c(cc3OC)N(C=O)[C@H]3[C@@](O)(C(=O)OC)[C@H](OC(C)=O)[C@]5(CC)C=CCN6CC[C@]43[C@@H]65)C2)C1 [vincristine] + N.N.[Cl][Pt][Cl] [cisplatin] (first compound 0.0001 µM, partner dose 1.6 µM)",182%
15,"O=C(/C=C/c1cccnc1)NCCCCC1CCN(C(=O)c2ccccc2)CC1 + N.N.[Cl][Pt][Cl] [cisplatin] (first compound 0.01 µM, partner dose 1.6 µM)",68.5%
16,"Nc1ncn([C@H]2C[C@H](O)[C@@H](CO)O2)c(=O)n1 [decitabine] + C[As](C)SC[C@H](NC(=O)CC[C@H](N)C(=O)O)C(=O)NCC(=O)O [Darinaparsin] (first compound 0.1 µM, partner dose 0.4 µM)",164%
17,"C#Cc1cccc(Nc2ncnc3cc(OCCOC)c(OCCOC)cc23)c1 [erlotinib] + C[As](C)SC[C@H](NC(=O)CC[C@H](N)C(=O)O)C(=O)NCC(=O)O [Darinaparsin] (first compound 0.8 µM, partner dose 0.4 µM)",126%
18,"Cn1cc(C2=C(c3cn(C4CCN(Cc5ccccn5)CC4)c4ccccc34)C(=O)NC2=O)c2ccccc21 [Enzastaurin] + CC(=O)c1c(C)c2cnc(Nc3ccc(N4CCNCC4)cn3)nc2n(C2CCCC2)c1=O [palbociclib] (first compound 0.8 µM, partner dose 0.04 µM)",254%
19,"N.N.[Cl][Pt][Cl] [cisplatin] + O=C(O)[C@@H]1[O][Sb](=[O])([O][Sb]2(=[O])[O][C@H]([C@H](O)CO)[C@H](O)[C@H](C(=O)O)[O]2)[O][C@H]([C@H](O)CO)[C@@H]1O [stibogluconate] (first compound 1.6 µM, partner dose 2 µM)",51.1%
20,"Cc1cn(-c2cc(NC(=O)c3ccc(C)c(Nc4nccc(-c5cccnc5)n4)c3)cc(C(F)(F)F)c2)cn1 [nilotinib] + C[C@]12O[C@H](C[C@]1(O)CO)n1c3ccccc3c3c4c(c5c6ccccc6n2c5c31)CNC4=O [Lestaurtinib] (first compound 0.2 µM, partner dose 0.004 µM)",147%
21,"CO[C@H]1C[C@@H]2CC[C@@H](C)[C@@](O)(O2)C(=O)C(=O)N2CCCC[C@H]2C(=O)O[C@H]([C@H](C)C[C@@H]2CC[C@@H](OCCO)[C@H](OC)C2)CC(=O)[C@H](C)/C=C(\C)[C@@H](O)[C@@H](OC)C(=O)[C@H](C)C[C@H](C)/C=C/C=C/C=C/1C [everolimus] + C[As](C)SC[C@H](NC(=O)CC[C@H](N)C(=O)O)C(=O)NCC(=O)O [Darinaparsin] (first compound 0.02 µM, partner dose 0.4 µM)",96.3%

# Some of the entries so far, tab-delimited:
row	SMILES	cleaved PARP positive nuclei fraction
10	C[C@]12O[C@H](C[C@]1(O)CO)n1c3ccccc3c3c4c(c5c6ccccc6n2c5c31)CNC4=O [Lestaurtinib] + Nc1ncn([C@H]2C[C@H](O)[C@@H](CO)O2)c(=O)n1 [decitabine] (first compound 0.004 µM, partner dose 0.1 µM)	145%
11	Cn1cc(C2=C(c3cn(C4CCN(Cc5ccccn5)CC4)c4ccccc34)C(=O)NC2=O)c2ccccc21 [Enzastaurin] + C[C@]1(c2nc3c(C(N)=O)cccc3[nH]2)CCCN1 [Veliparib] (first compound 0.8 µM, partner dose 1.4 µM)	286%
